Reference: patent US20220169643A1, “ESTROGEN RECEPTOR DEGRADING PROTACS” (AstraZeneca AB, priority 2019, published 2022)
The match of structure and compound is tentative.

The chains behind the UniProt entries cited, without tags or fusion partners. Residues count along the entry.
UniProt P03372, 307-554 limits assumed: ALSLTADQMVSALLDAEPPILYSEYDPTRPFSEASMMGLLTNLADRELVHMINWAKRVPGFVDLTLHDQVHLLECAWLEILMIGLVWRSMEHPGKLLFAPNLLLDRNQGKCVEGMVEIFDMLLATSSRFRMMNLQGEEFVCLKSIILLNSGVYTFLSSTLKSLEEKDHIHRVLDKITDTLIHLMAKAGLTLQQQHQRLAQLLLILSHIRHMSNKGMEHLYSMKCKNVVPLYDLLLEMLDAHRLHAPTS

The molecules below were run against Estrogen Receptor Alpha Ligand binding domain (ER alpha-LBD (GST)) (Homo sapiens, UniProt P03372) (assay: ERα Binding Assay (LanthaScreen TR-FRET competition)). Details: read-out: ER binding IC50, competitive displacement of Fluormone ES2 tracer from recombinant human ER alpha-LBD (residues 307-554), 4 hours at room temperature.
Experimental: The ability of compounds to bind to isolated Estrogen Receptor Alpha Ligand binding domain (ER alpha-LBD (GST)) was assessed in competition assays using a LanthaScreen™ Time-Resolved Fluorescence Resonance Energy Transfer (TR-FRET) detection end-point. For the LanthaScreen TR-FRET endpoint, a suitable fluorophore (Fluormone ES2, ThermoFisher, Product code P2645) and recombinant human Estrogen Receptor alpha ligand binding domain, residues 307-554 (expressed and purified in-house) were used to measure compound binding. The assay principle is that ER alpha-LBD (GST) is added to a fluorescent ligand to form a receptor/fluorophore complex. A terbium-labelled anti-GST antibody (Product code PV3551) is used to indirectly label the receptor by binding to its GST tag, and competitive binding is detected by a test compound's ability to displace the fluorescent ligand, resulting in a loss of TR-FRET signal between the Th-anti-GST antibody and the tracer. The assay was performed as follows with all reagent additions carried out using the Beckman Coulter BioRAPTR FRD microfluidic workstation: • 1. Acoustic dispense 120 nL of the test compound into a black low volume 384 well assay plates. • 2. Prepare 1×ER alpha-LBD/Tb-anti-GST Ab in ES2 screening buffer and incubate for 15 minutes. • 3. Dispense 6 μL of the 1×[…]/Th-anti-GST Ab reagent into each well of the assay plate followed by 6 μL of Fluorophore reagent into each well of the assay plate • 4. Cover the assay plate to protect the reagents from light and evaporation, and incubate at room temperature for 4 hours. • 5. […]
In total 120 nL of compound plus DMSO were added to each well and compounds were tested in a 12-point concentration response format over a final compound concentration range of 10, 2.917, 1.042, 0.2083, 0.1, 0.0292, 0.0104, 0.002083, 0.001, 0.0002917, 0.0001042, and 0.00001 μM respectively. […] Competitive ER alpha binding was expressed as an IC50 value. This was determined by calculation of the concentration of compound that was required to give a 50% reduction in tracer compound binding to ER alpha-LBD.

SMILES	IC50 [nM]
C[C@@H]1Cc2c([nH]c3ccccc23)[C@@H](c2cnc(OCCCCCN3CCC4(CC3)CCN(c3ccc5c(c3)CN(C3CCC(=O)NC3=O)C5=O)CC4)nc2)N1CC(C)(C)F (stereo partly drawn)	6.8
C[C@@H]1Cc2c([nH]c3ccccc23)[C@@H](c2cnc(N3CCC4(CC3)CC(CN3CCC5(CC3)CCN(c3ccc6c(c3)CN(C3CCC(=O)NC3=O)C6=O)CC5)C4)nc2)N1CC(C)(C)F (stereo partly drawn)	2.1
C[C@@H]1Cc2c([nH]c3ccccc23)[C@@H](c2cnc(N3CCC4(CCN(CCN5CCN(c6ccc7c(c6)CN(C6CCC(=O)NC6=O)C7=O)CC5)C(=O)C4)CC3)nc2)N1CC(C)(C)F (stereo partly drawn)	2.6
